From patent US20240158512A1 (TRUEBINDING, published 2024)
Results are given in words; binding and its absence hold for the method and conditions named. Some binding calls cover weakened binding; strength is not graded here.

Amino acid sequences for entries named in this document (tags omitted).
UniProt P17931: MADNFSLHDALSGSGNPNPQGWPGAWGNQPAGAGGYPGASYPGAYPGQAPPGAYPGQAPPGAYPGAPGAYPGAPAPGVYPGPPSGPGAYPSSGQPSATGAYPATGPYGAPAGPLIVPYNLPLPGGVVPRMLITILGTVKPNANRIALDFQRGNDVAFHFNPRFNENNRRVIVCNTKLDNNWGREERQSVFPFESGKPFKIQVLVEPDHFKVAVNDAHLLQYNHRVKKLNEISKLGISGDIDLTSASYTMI

Experiments:
Galectin-3 [1] = target: Galectin-3 (UniProt P17931); assay: ELISA; stability test of 50 mg/mL TB006 DS (Table 7)
Galectin-3 [2] = target: Galectin-3 (UniProt P17931); assay: BLI; stability test of 20 mg/mL TB006 DS (Table 5)
Galectin-3 [3] = target: Galectin-3 (UniProt P17931); assay: BLI; second stability test of 20 mg/mL TB006 DS (Table 6)

Measured: binding

B1: TB006 (antibody, human IgG4 S228P, kappa, V domains shown)
VH: QVQLVQSGAEVKKPGASVKVSCKASGYSFTNYYMHWVRQAPGQRLEWMGWIYPGSGNTNYNEKFQGRVTITADTSASTAYMELSSLRSEDTAVYYCSTAPGGFDVWGQGTTVTVSS
VL: DIVMTQTPLSLSVTPGQPASISCKSSKSLLHSDGITYLYWYLQKPGQSPQLLIYRMSNLASGVPDRFSGSGSGTDFTLKISRVEAEDVGVYYCAQMLEFPLTFGQGTKLEIKR
binds: all assays above
